# Laboratory results as given in the supplement of paper PMC8728848.
# The other results are listed elsewhere or left out.
# B1: NanH (Corynebacterium diphtheriae), C6JSW6 (protein)
# chain: MYSSNRTYSRAILGLSAVLTLSFTSLVAPVNAEEPETVVPATAELEGEVAATLPSAETGLLDAAPPKPVARGAAGDLQLPAVNEKEVFEEGRVIRAPEPDQSRCYRIPALVTAKNGDLLLAFDNRYGGGDGAKTWCRDAPYENMKRINRQNMQTDIQLYRSVDNGQSFEDFGYIAQGTADVRELSYTDPALVTDRTTGKIFAFFVRAYDYRVGQSSAGFNEGDVEAEIQKRDVQDTVVVESLDGGQTWGNMRLLSALTAKVSSISTGDTIFDGRGRFVTSGAGIQLQYGEHAGRLIVPISVDIDPKDSAKFINLAIYSDDHGQTWQAGIGTAGGAGFSGDVSKIVELSDGRLMMSSKDNDKPRWVSYSEDQGENWSTPKRKIIAPPQHPEKHNTGINVGLIRAYPNAPENSAAARVLLYSAPIDQRYSHKHTEDGRNNGWVMGSCDDGKTWSFGRQIEKNRFQYSSMTVMSDGNIGMVYESGDFSTGMNLKFAKFNMAWLGADCHSNEALGLTGDIDKEIVEAQEKAAEATKEAQEAAEKVQKLTEELAAARKENDELKNQVKGFKEAVGDLANEAEDLADKVFKLETAVTEAKEKATVAEKAASDAVTQLQKAESIAEEQKAKAESAAAEAQALREKLERLEGSILTVKENPEAEEIADLSSTAKDAADAARRAATDANGALSGQKQDEEKPAMGLMGILKVLAGIIPLVAIIATIFQTFRLPFNIPGMR
# Experiments:
# Test in all cases: glycan array binding signal (z-score within array); higher = stronger binding
# Settings in all cases: glycan notation: IUPAC condensed, linker removed
# [1] = target: Neu5Ac(a2-6)Gal(b1-4)GlcNAc(b1-2)Man(a1-3)[GlcNAc(b1-2)Man(a1-6)]Man(b1-4)GlcNAc(b1-4)GlcNAc
# Procedure, shortened: (§1)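 Glycan array binding is given as a within-array Z-score, which can be read as non-binding when negative. The arrays, 3228 of them, came from the Consortium for Functional Glycomics database and were retained only where the protein sequence was available. Z-scores were averaged across arrays of the same protein sequence at different concentrations or buffers and across linkers.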
# [2] = target: Neu5Ac(a2-6)Gal(b1-4)GlcNAc(b1-2)Man(a1-3)[GlcNAc(b1-2)Man(b1-4)GlcNAc(b1-2)Man(a1-6)]Man(b1-4)GlcNAc(b1-4)GlcNAc
# Procedure, shortened: as §1
# [3] = target: Neu5Ac(a2-6)Gal(b1-4)GlcNAc(b1-2)Man(a1-3)[Man(a1-6)]Man(b1-4)GlcNAc(b1-4)GlcNAc
# Procedure, shortened: as §1
# [4] = target: Neu5Ac(a2-6)Gal(b1-4)GlcNAc(b1-2)Man(a1-3)[Neu5Ac(a2-6)Gal(b1-4)GlcNAc(b1-2)Man(a1-6)]Man(b1-4)GlcNAc(b1-4)GlcNAc
# Procedure, shortened: as §1
# [5] = target: Neu5Ac(a2-6)Gal(b1-4)GlcNAc(b1-2)Man(a1-6)Man(b1-4)GlcNAc(b1-4)GlcNAc
# Procedure, shortened: as §1
# [6] = target: Neu5Ac(a2-6)Gal(b1-4)GlcNAc(b1-2)Man(a1-6)[Gal(b1-4)GlcNAc(b1-2)Man(a1-3)]Man(b1-4)GlcNAc(b1-4)GlcNAc
# Procedure, shortened: as §1
# [7] = target: Neu5Ac(a2-6)Gal(b1-4)GlcNAc(b1-2)Man(a1-6)[GlcNAc(b1-2)Man(a1-3)]Man(b1-4)GlcNAc(b1-4)GlcNAc
# Procedure, shortened: as §1
# [8] = target: Neu5Ac(a2-6)Gal(b1-4)GlcNAc(b1-2)Man(a1-6)[Man(a1-3)]Man(b1-4)GlcNAc(b1-4)GlcNAc
# Procedure, shortened: as §1
# [9] = target: Neu5Ac(a2-6)Gal(b1-4)GlcNAc(b1-3)Gal(b1-3)GlcNAc
# Procedure, shortened: as §1
# [10] = target: Neu5Ac(a2-6)Gal(b1-4)GlcNAc(b1-3)Gal(b1-4)GlcNAc
# Procedure, shortened: as §1
# [11] = target: Neu5Ac(a2-6)Gal(b1-4)GlcNAc(b1-3)Gal(b1-4)GlcNAc(b1-3)Gal(b1-4)GlcNAc
# Procedure, shortened: as §1
# [12] = target: Neu5Ac(a2-6)Gal(b1-4)GlcNAc(b1-3)Gal(b1-4)[Fuc(a1-3)]GlcNAc(b1-3)Gal(b1-4)[Fuc(a1-3)]GlcNAc
# Procedure, shortened: as §1
# [13] = target: Neu5Ac(a2-6)Gal(b1-4)GlcNAc(b1-3)GalNAc
# Procedure, shortened: as §1
# [14] = target: Neu5Ac(a2-6)Gal(b1-4)GlcNAc6S
# Procedure, shortened: as §1
# Neu5Ac(a2-6)GalNAc = target: Neu5Ac(a2-6)GalNAc
# Procedure, shortened: as §1
# [15] = target: Neu5Ac(a2-6)GalNAc(b1-4)GlcNAc
# Procedure, shortened: as §1
# [16] = target: Neu5Ac(a2-6)GlcNAc(b1-4)GlcNAc
# Procedure, shortened: as §1
# [17] = target: Neu5Ac(a2-6)GlcNAc(b1-4)GlcNAc(b1-4)GlcNAc
# Procedure, shortened: as §1
# Neu5Ac(a2-8)Neu5Ac = target: Neu5Ac(a2-8)Neu5Ac
# Procedure, shortened: as §1
# [18] = target: Neu5Ac(a2-8)Neu5Ac(a2-3)Gal(b1-3)GalNAc(b1-4)[Neu5Ac(a2-8)Neu5Ac(a2-3)]Gal(b1-4)Glc
# Procedure, shortened: as §1
# [19] = target: Neu5Ac(a2-8)Neu5Ac(a2-3)Gal(b1-4)Glc
# Procedure, shortened: as §1
# [20] = target: Neu5Ac(a2-8)Neu5Ac(a2-3)[Gal(b1-3)GalNAc(b1-4)]Gal(b1-4)Glc
# Procedure, shortened: as §1
# [21] = target: Neu5Ac(a2-8)Neu5Ac(a2-3)[GalNAc(b1-4)]Gal(b1-4)Glc
# Procedure, shortened: as §1
# [22] = target: Neu5Ac(a2-8)Neu5Ac(a2-8)Neu5Ac
# Procedure, shortened: as §1
# [23] = target: Neu5Ac(a2-8)Neu5Ac(a2-8)Neu5Ac(a2-3)Gal(b1-4)Glc
# Procedure, shortened: as §1
# [24] = target: Neu5Ac(a2-8)Neu5Ac(a2-8)Neu5Ac(a2-3)[GalNAc(b1-4)]Gal(b1-4)Glc
# Procedure, shortened: as §1
# [25] = target: Neu5Ac(a2-8)Neu5Ac(a2-8)Neu5Ac(a2-8)Neu5Ac(a2-3)[GalNAc(b1-4)]Gal(b1-4)Glc
# Procedure, shortened: as §1
# [26] = target: Neu5Ac(b2-6)Gal(b1-4)GlcNAc
# Procedure, shortened: as §1
# Neu5Ac(b2-6)GalNAc = target: Neu5Ac(b2-6)GalNAc
# Procedure, shortened: as §1
# [27] = target: Neu5Ac9Ac(a2-3)Gal(b1-3)GlcNAc
# Procedure, shortened: as §1
binder,measurement,setting,value
B1,glycan array binding signal (z-score),[1],0.122
same,glycan array binding signal (z-score),[2],-0.53
same,glycan array binding signal (z-score),[3],-0.077
same,glycan array binding signal (z-score),[4],1
same,glycan array binding signal (z-score),[5],-0.021
same,glycan array binding signal (z-score),[6],-0.99
same,glycan array binding signal (z-score),[7],-0.6
same,glycan array binding signal (z-score),[8],0.682
same,glycan array binding signal (z-score),[9],-2.99
same,glycan array binding signal (z-score),[10],-1.09
same,glycan array binding signal (z-score),[11],0.818
same,glycan array binding signal (z-score),[12],-2.13
same,glycan array binding signal (z-score),[13],-1.87
same,glycan array binding signal (z-score),[14],-0.306
same,glycan array binding signal (z-score),Neu5Ac(a2-6)GalNAc,-0.982
same,glycan array binding signal (z-score),[15],-1.17
same,glycan array binding signal (z-score),[16],-0.236
same,glycan array binding signal (z-score),[17],-0.915
same,glycan array binding signal (z-score),Neu5Ac(a2-8)Neu5Ac,0.174
same,glycan array binding signal (z-score),[18],0.317
same,glycan array binding signal (z-score),[19],-1.02
same,glycan array binding signal (z-score),[20],0.453
same,glycan array binding signal (z-score),[21],-0.188
same,glycan array binding signal (z-score),[22],-0.296
same,glycan array binding signal (z-score),[23],0.272
same,glycan array binding signal (z-score),[24],-0.682
same,glycan array binding signal (z-score),[25],-0.496
same,glycan array binding signal (z-score),[26],0.535
same,glycan array binding signal (z-score),Neu5Ac(b2-6)GalNAc,-0.897
same,glycan array binding signal (z-score),[27],1.84

# Shown with tabs: entries from further up
binder	measurement	setting	value
B1	glycan array binding signal (z-score)	[24]	-0.682
same	glycan array binding signal (z-score)	[25]	-0.496
